The results in this text go back to paper PMC4490394 (Scientific Reports, 2015).

The assay deals with VCaP cells. Put plainly: VCaP proliferation assay (WST-1). The assay is classed as cell-based. Conditions: Homo sapiens, 96 h, read-out: IC50, androgen-induced VCaP cell proliferation. The procedure: VCaP cells were treated with a submaximal concentration of mibolerone (0.1 nM) and increasing concentrations of test compounds in steroid-free assay medium supplemented with 4 mM GlutaMAX. After a 4-day incubation with the compounds, cell viability was measured using a WST-1 cell proliferation assay (Roche), according to manufacturer’s instructions. […]
Background: Tetrazolium assays rely on reduction of a dye to a coloured formazan, in cell work by metabolically active cells.

In the case of `CNC(=O)c1ccc(N2C(=S)N(c3ccc(C#N)c(C(F)(F)F)c3)C(=O)C2(C)C)cc1F` [Enzalutamide, enzalutamide, reference compound], the IC50 is 0.41 µM.
